Measured values as given in US12729225B2, “Non-canonical SWI/SNF complex and uses thereof” (Dana-Farber Cancer Institute, Inc., priority 2018, dated 2026).

B1: ACADM (protein, UniProt P11310 26-421, looked up)
Medium-chain specific …: KANRQREPGLGFSFEFTEQQKEFQATARKFAREEIIPVAAEYDKTGEYPVPLIRRAWELGLMNTHIPENCGGLGLGTFDACLISEELAYGCTGVQTAIEGNSLGQMPIIIAGNDQQKKKYLGRMTEEPLMCAYCVTEPGAGSDVAGIKTKAEKKGDEYIINGQKMWITNGGKANWYFLLARSDPDPKAPANKAFTGFIVEADTPGIQIGRKELNMGQRCSDTRGIVFEDVKVPKENVLIGDGAGFKVAMGAFDKTRPVVAAGAVGLAQRALDEATKYALERKTFGKLLVEHQAISFMLAEMAMKVELARMSYQRAAWEVDSGRRNTYYASIAKAFAGDIANQLATDAVQILGGNGFNTEYPVEKLMRDAKIYQIYEGTSQIQRLIVAREHIDKYKN
B2: MTHFD1L (protein, UniProt Q6UB35 32-978, looked up)
Monofunctional …: SSGGGGGGGGGREGLLGQRRPQDGQARSSCSPGGRTPAARDSIVREVIQNSKEVLSLLQEKNPAFKPVLAIIQAGDDNLMQEINQNLAEEAGLNITHICLPPDSSEAEIIDEILKINEDTRVHGLALQISENLFSNKVLNALKPEKDVDGVTDINLGKLVRGDAHECFVSPVAKAVIELLEKSGVNLDGKKILVVGAHGSLEAALQCLFQRKGSMTMSIQWKTRQLQSKLHEADIVVLGSPKPEEIPLTWIQPGTTVLNCSHDFLSGKVGCGSPRIHFGGLIEEDDVILLAAALRIQNMVSSGRRWLREQQHRRWRLHCLKLQPLSPVPSDIEISRGQTPKAVDVLAKEIGLLADEIEIYGKSKAKVRLSVLERLKDQADGKYVLVAGITPTPLGEGKSTVTIGLVQALTAHLNVNSFACLRQPSQGPTFGVKGGAAGGGYAQVIPMEEFNLHLTGDIHAITAANNLLAAAIDTRILHENTQTDKALYNRLVPLVNGVREFSEIQLARLKKLGINKTDPSTLTEEEVSKFARLDIDPSTITWQRVLDTNDRFLRKITIGQGNTEKGHYRQAQFDIAVASEIMAVLALTDSLADMKARLGRMVVASDKSGQPVTADDLGVTGALTVLMKDAIKPNLMQTLEGTPVFVHAGPFANIAHGNSSVLADKIALKLVGEEGFVVTEAGFGADIGMEKFFNIKCRASGLVPNVVVLVATVRALKMHGGGPSVTAGVPLKKEYTEENIQLVADGCCNLQKQIQITQLFGVPVVVALNVFKTDTRAEIDLVCELAKRAGAFDAVPCYHWSVGGKGSVDLARAVREAASKRSRFQFLYDVQVPIVDKIRTIAQAVYGAKDIELSPEAQAKIDRYTQQGFGNLPICMAKTHLSLSHQPDKKGVPRDFILPISDVRASIGAGFIYPLVGTMSTMPGLPTRPCFYDIDLDTETEQVKGLF
B3: DNAJB11 (protein, UniProt Q9UBS4 23-358, looked up)
DnaJ homolog subfamily B …: GRDFYKILGVPRSASIKDIKKAYRKLALQLHPDRNPDDPQAQEKFQDLGAAYEVLSDSEKRKQYDTYGEEGLKDGHQSSHGDIFSHFFGDFGFMFGGTPRQQDRNIPRGSDIIVDLEVTLEEVYAGNFVEVVRNKPVARQAPGKRKCNCRQEMRTTQLGPGRFQMTQEVVCDECPNVKLVNEERTLEVEIEPGVRDGMEYPFIGEGEPHVDGEPGDLRFRIKVVKHPIFERRGDDLYTNVTISLVESLVGFEMDITHLDGHKVHISRDKITRPGAKLWKKGEGLPNFDNNNIKGSLIITFDVDFPKEQLTEEAREGIKQLLKQGSVQKVYNGLQGY
B4: CSN1S1 (protein, UniProt P47710 16-185, looked up)
Alpha-S1-casein: RPKLPLRYPERLQNPSESSEPIPLESREEYMNGMNRQRNILREKQTDEIKDTRNESTQNCVVAEPEKMESSISSSSEEMSLSKCAEQFCRLNEYNQLQLQAAHAQEQIRRMNENSHVQVPFQQLNQLAAYPYAVWYYPQIMQYVPFPPFSDISNPTAHENYEKNNVMLQW
B5: HMGB2 (protein, UniProt P26583 1-209, looked up)
High mobility group protein B2: MGKGDPNKPRGKMSSYAFFVQTCREEHKKKHPDSSVNFAEFSKKCSERWKTMSAKEKSKFEDMAKSDKARYDREMKNYVPPKGDKKGKKKDPNAPKRPPSAFFLFCSEHRPKIKSEHPGLSIGDTAKKLGEMWSEQSAKDKQPYEQKAAKLKEKYEKDIAAYRAKGKSEAGKKGPGRPTGSKKKNEPEDEEEEEEEEDEDEEEEDEDEE
B6: PABPN1 (protein, UniProt Q86U42 2-306, looked up)
Polyadenylate-binding protein …: AAAAAAAAAAGAAGGRGSGPGRRRHLVPGAGGEAGEGAPGGAGDYGNGLESEELEPEELLLEPEPEPEPEEEPPRPRAPPGAPGPGPGSGAPGSQEEEEEPGLVEGDPGDGAIEDPELEAIKARVREMEEEAEKLKELQNEVEKQMNMSPPPGNAGPVIMSIEEKMEADARSIYVGNVDYGATAEELEAHFHGCGSVNRVTILCDKFSGHPKGFAYIEFSDKESVRTSLALDESLFRGRQIKVIPKRTNRPGISTTDRGFPRARYRARTTNYNSSRSRFYSGFNSRPRGRVYRGRARATSWYSPY
B7: SRP68 (protein, UniProt Q9UHB9 1-627, looked up)
Signal recognition particle …: MAAEKQVPGGGGGGGSGGGGGSGGGGSGGGRGAGGEENKENERPSAGSKANKEFGDSLSLEILQIIKESQQQHGLRHGDFQRYRGYCSRRQRRLRKTLNFKMGNRHKFTGKKVTEELLTDNRYLLLVLMDAERAWSYAMQLKQEANTEPRKRFHLLSRLRKAVKHAEELERLCESNRVDAKTKLEAQAYTAYLSGMLRFEHQEWKAAIEAFNKCKTIYEKLASAFTEEQAVLYNQRVEEISPNIRYCAYNIGDQSAINELMQMRLRSGGTEGLLAEKLEALITQTRAKQAATMSEVEWRGRTVPVKIDKVRIFLLGLADNEAAIVQAESEETKERLFESMLSECRDAIQVVREELKPDQKQRDYILEGEPGKVSNLQYLHSYLTYIKLSTAIKRNENMAKGLQRALLQQQPEDDSKRSPRPQDLIRLYDIILQNLVELLQLPGLEEDKAFQKEIGLKTLVFKAYRCFFIAQSYVLVKKWSEALVLYDRVLKYANEVNSDAGAFKNSLKDLPDVQELITQVRSEKCSLQAAAILDANDAHQTETSSSQVKDNKPLVERFETFCLDPSLVTKQANLVHFPPGFQPIPCKPLFFDLALNHVAFPPLEDKLEQKTKSGLTGYIKGIFGFRS
B8: RBM26 (protein, UniProt Q5T8P6 1-1007, looked up)
RNA-binding protein 26: MVSKMIIENFEALKSWLSKTLEPICDADPSALAKYVLALVKKDKSEKELKALCIDQLDVFLQKETQIFVEKLFDAVNTKSYLPPPEQPSSGSLKVEFFPHQEKDIKKEEITKEEEREKKFSRRLNHSPPQSSSRYRENRSRDERKKDDRSRKRDYDRNPPRRDSYRDRYNRRRGRSRSYSRSRSRSWSKERLRERDRDRSRTRSRSRTRSRERDLVKPKYDLDRTDPLENNYTPVSSVPSISSGHYPVPTLSSTITVIAPTHHGNNTTESWSEFHEDQVDHNSYVRPPMPKKRCRDYDEKGFCMRGDMCPFDHGSDPVVVEDVNLPGMLPFPAQPPVVEGPPPPGLPPPPPILTPPPVNLRPPVPPPGPLPPSLPPVTGPPPPLPPLQPSGMDAPPNSATSSVPTVVTTGIHHQPPPAPPSLFTADTYDTDGYNPEAPSITNTSRPMYRHRVHAQRPNLIGLTSGDMDLPPREKPPNKSSMRIVVDSESRKRTIGSGEPGVPTKKTWFDKPNFNRTNSPGFQKKVQFGNENTKLELRKVPPELNNISKLNEHFSRFGTLVNLQVAYNGDPEGALIQFATYEEAKKAISSTEAVLNNRFIKVYWHREGSTQQLQTTSPKVMQPLVQQPILPVVKQSVKERLGPVPSSTIEPAEAQSASSDLPQNVTKLSVKDRLGFVSKPSVSATEKVLSTSTGLTKTVYNPAALKAAQKTLLVSTSAVDNNEAQKKKQEALKLQQDVRKRKQEILEKHIETQKMLISKLEKNKTMKSEDKAEIMKTLEVLTKNITKLKDEVKAASPGRCLPKSIKTKTQMQKELLDTELDLYKKMQAGEEVTELRRKYTELQLEAAKRGILSSGRGRGIHSRGRGAVHGRGRGRGRGRGVPGHAVVDHRPRALEISAFTESDREDLLPHFAQYGEIEDCQIDDSSLHAVITFKTRAEAEAAAVHGARFKGQDLKLAWNKPVTNISAVETEEVEPDEEEFQEESLVDDSLLQDDDEEEEDNESRSWRR

Test system: mSWI/SNF complexes
Assay: mSWI/SNF complex purification with HA-tagged baits and mass spectrometry (peptide counts)
Parameters: species or system human
Conditions: 293_HA-BRD7: HA-BRD7 bait purification, total peptide count per co-purified protein

Row | Molecule | Total
1 | B1 | 13

Same assay, conditions: 293_HA-BRD7: HA-BRD7 bait purification, unique peptide count per co-purified protein

Row | Molecule | Unique
2 | B1 | 13

Same assay, conditions: 293_HA-BRD7 bait purification, mass spectrometry; total peptide count per identified protein

Row | Molecule | Total
3 | B2 | 1
4 | B3 | 1
5 | B4 | 1
6 | B5 | 1
7 | B6 | 1
8 | B7 | 1
9 | B8 | 1

Same assay, conditions: 293_HA-BRD7 bait purification, mass spectrometry; unique peptide count per identified protein

Row | Molecule | Unique
10 | B2 | 1
11 | B3 | 1
12 | B4 | 1
13 | B5 | 1
14 | B6 | 1
15 | B7 | 1
16 | B8 | 1
